The target of the experiment is T1, β-catenin (human (endogenous in MCF-7)), P35222.
T1 chain: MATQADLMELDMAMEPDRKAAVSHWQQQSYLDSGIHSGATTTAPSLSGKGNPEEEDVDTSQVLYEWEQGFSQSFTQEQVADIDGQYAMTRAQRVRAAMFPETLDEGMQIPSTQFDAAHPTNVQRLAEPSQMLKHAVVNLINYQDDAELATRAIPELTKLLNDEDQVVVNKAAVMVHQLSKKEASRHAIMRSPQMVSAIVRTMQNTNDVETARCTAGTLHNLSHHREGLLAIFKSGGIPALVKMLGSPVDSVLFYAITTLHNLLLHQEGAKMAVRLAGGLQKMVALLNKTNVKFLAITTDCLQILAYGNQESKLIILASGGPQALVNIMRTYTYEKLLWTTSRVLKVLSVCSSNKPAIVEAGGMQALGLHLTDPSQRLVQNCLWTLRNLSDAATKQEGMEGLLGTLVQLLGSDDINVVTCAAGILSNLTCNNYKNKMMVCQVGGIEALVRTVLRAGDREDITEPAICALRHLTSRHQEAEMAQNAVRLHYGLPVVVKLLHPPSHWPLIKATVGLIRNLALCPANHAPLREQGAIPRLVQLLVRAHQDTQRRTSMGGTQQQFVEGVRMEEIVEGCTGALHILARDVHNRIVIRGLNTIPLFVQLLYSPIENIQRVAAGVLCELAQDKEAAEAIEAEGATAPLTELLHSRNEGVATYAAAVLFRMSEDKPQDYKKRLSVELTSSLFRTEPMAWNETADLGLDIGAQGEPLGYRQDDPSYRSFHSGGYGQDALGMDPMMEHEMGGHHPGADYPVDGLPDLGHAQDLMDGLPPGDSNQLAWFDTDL
Briefly: co-IP; lysates of platelet-co-cultured MCF-7 cells (PBS with 0.1% Triton X-100, then RIPA buffer); immune and preimmune sera with protein A-Sepharose beads, 14 h at 4 °C; western blotting. The settings on record: remark: other sources report otherwise.

These are yes or no findings as the source states them, for the method shown. In cells and extracts the contact can be indirect. Some entries that bind do so weakly or less than the wild type.

B1: pSmad3, P84022 1-425 (protein)
chain: MSSILPFTPPIVKRLLGWKKGEQNGQEEKWCEKAVKSLVKKLKKTGQLDELEKAITTQNVNTKCITIPRSLDGRLQVSHRKGLPHVIYCRLWRWPDLHSHHELRAMELCEFAFNMKKDEVCVNPYHYQRVETPVLPPVLVPRHTEIPAEFPPLDDYSHSIPENTNFPAGIEPQSNIPETPPPGYLSEDGETSDHQMNHSMDAGSPNLSPNPMSPAHNNLDLQPVTYCEPAFWCSISYYELNQRVGETFHASQPSMTVDGFTDPSNSERFCLGLLSNVNRNAAVELTRRHIGRGVRLYYIGGEVFAECLSDSAIFVQSPNCNQRYGWHPATVCKIPPGCNLKIFNNQEFAALLAQSVNQGFEAVYQLTRMCTIRMSFVKGWGAEYRRQTVTSTPCWIELHLNGPLQWLDKVLTQMGSPSIRCSSVS
modifications: here or on the partner: phosphorylated (pSmad3); residues not stated
In the case of B1, the binding result is listed as “binds”.

The values are drawn from paper PMC6836423.
